What was measured:
LNCaP tumor xenografts = assay: PET/CT imaging in mice bearing LNCaP tumor xenografts; format: in vivo; conditions: PET images acquired at 1 h post injection
[1] = test system: HEK293T:hFAP tumor xenografts; assay: PET/CT imaging in mice bearing HEK293T:hFAP tumor xenografts; format: in vivo; conditions: PET images acquired at 1 h post injection

Structure (SMILES) | Visualization of LNCaP tumor xenografts in PET images (LNCaP tumor xenografts) | Visualization of HEK293T:hFAP tumor xenografts in PET images [1]
N#C[C@@H]1CC(F)(F)CN1C(=O)CNC(=O)c1ccnc2ccc(OCCCc3cn(CC(=O)N[C@@H](CCCCNC(=O)CN4CCN(CC(=O)[O-])CCN(CC(=O)[O-])CCN(CC(=O)[O-])CC4)C(=O)NCC(=O)NC[C@H]4CC[C@H](C(=O)N[C@@H](Cc5c6ccccc6cc6ccccc56)C(=O)NCCCC[C@H](NC(=O)N[C@@H](CCC(=O)O)C(=O)O)C(=O)O)CC4)nn3)cc12.[68Ga+3] [[^68Ga]Ga-AV01017] | barely visualized | barely visualized
N#C[C@@H]1CC(F)(F)CN1C(=O)CNC(=O)c1ccnc2ccc(-c3cn(CC(=O)N[C@@H](CCCCNC(=O)CN4CCN(CC(=O)[O-])CCN(CC(=O)[O-])CCN(CC(=O)[O-])CC4)C(=O)NCC(=O)NC[C@H]4CC[C@H](C(=O)N[C@@H](Cc5c6ccccc6cc6ccccc56)C(=O)NCCCC[C@H](NC(=O)N[C@@H](CCC(=O)O)C(=O)O)C(=O)O)CC4)nn3)cc12.[68Ga+3] [[^68Ga]Ga-AV01030] | barely visualized | clearly visualized
N#C[C@@H]1CC(F)(F)CN1C(=O)CNC(=O)c1ccnc2ccc(OCc3cn(CC(=O)N[C@@H](CCCCNC(=O)CN4CCN(CC(=O)[O-])CCN(CC(=O)[O-])CCN(CC(=O)[O-])CC4)C(=O)NCC(=O)NC[C@H]4CC[C@H](C(=O)N[C@@H](Cc5c6ccccc6cc6ccccc56)C(=O)NCCCC[C@H](NC(=O)N[C@@H](CCC(=O)O)C(=O)O)C(=O)O)CC4)nn3)cc12.[68Ga+3] [[^68Ga]Ga-AV01038] | barely visualized | barely visualized
N#C[C@@H]1CC(F)(F)CN1C(=O)CNC(=O)c1ccnc2ccc(OCCCN3CCN(C(=O)CN4CCN(CC(=O)[O-])CCN(CC(=O)[O-])CCN(CC(=O)[O-])CC4)CC3)cc12.[68Ga+3] [[^68Ga]Ga-FAPI-04, reference compound] | not visualized | clearly visualized
O=C([O-])CN1CCN(CC(=O)[O-])CCN(CC(=O)NC[C@H]2CC[C@H](C(=O)N[C@@H](Cc3c4ccccc4cc4ccccc34)C(=O)NCCCC[C@H](NC(=O)N[C@@H](CCC(=O)O)C(=O)O)C(=O)O)CC2)CCN(CC(=O)[O-])CC1.[68Ga+3] [[^68Ga]Ga-HTK03041, reference compound] | clearly visualized | not visualized

— paper PMC9921851, “Synthesis and Preclinical Evaluation of Three Novel ^68Ga-Labeled Bispecific PSMA/FAP-Targeting Tracers for Prostate Cancer Imaging” (Molecules, 2023)
